These are yes or no findings as the source states them, for the method shown. Some binding calls cover weakened binding; strength is not graded here.
target: recombinant human Pro-Factor D, Strep tagged (human) (UniProt P00746); assay: ELISA with hybridoma supernatant; pro-Factor D-Strep captured by AF1824

Amino acid sequences for entries named in this document (tags omitted). A change or cut given only in a name is not applied to a line headed by its entry.
UniProt P00746: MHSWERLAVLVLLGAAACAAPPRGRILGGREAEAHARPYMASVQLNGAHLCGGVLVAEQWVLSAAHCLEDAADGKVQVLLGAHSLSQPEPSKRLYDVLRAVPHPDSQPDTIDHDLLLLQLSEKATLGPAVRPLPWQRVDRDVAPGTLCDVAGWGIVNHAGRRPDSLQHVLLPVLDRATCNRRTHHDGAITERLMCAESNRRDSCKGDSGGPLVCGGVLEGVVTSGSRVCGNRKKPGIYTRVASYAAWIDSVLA

binding | Binder
binds | 12H10, hybridoma supernatant (antibody, V domains shown) VH: EVQLVESGGGLVQPKGSLKLSCAASGFSFNTYAMNWVRQAPGKGLEWVARIRSKSNNYATYYADSVKDRFTISRDDSESMLYLQMNNLKTEDTAMYYCVRHGYYWYFDVWGTGTTVTVSS VL: DVLMTQTPLSLPVSLGDQASISCRSSQSIVHSDGNTYLEWYLQKPGQSPKLLIYRVSNRFSGVPDRFSGSGSGTDFTLKISRVEAEDLGVYYCFQGSHVPYTFGGGTKLEIKR
binds | 7H2, hybridoma supernatant (antibody, V domains shown) VH: EVQVVESGGGLVRPKGSLKLSCAASGFSFNTYAMNWVRQAPGKGLEWVARIRSKSNNYATYYADSVKDRFTISRDDSESMLSLQMNNLKTEDTAMYYCVRQGYYWYFDVWGTGTTVTVSS VL: DVLMTQTPLSLPVSLGDQASISCRSSQSIVHSNGNTYLEWYLQKPGQSPKLLIYTVSNRFSGVPDRFRGSGSGTDFTLKISRVEAEDLGVYYCFQGSHVPWTFGGGTKLEIKR
binds | 3C5, hybridoma supernatant (antibody, V domains shown) VH: EVKLVESGGGLVQPGGSLKLSCATSGFTFSDYGMAWVRQAPGKGPEWVAFISNLAYSFYYVDIVMGRFTISRENAKNTLYLEMSSLRSEDTAMYYCARVGLYGNFFMDYWGQGTSVTVSS VL: DIQMNQSPSSLSASLGDTITITCHASQNINVWLSWYQQKPGNIPELLIYKASNLHTGVPSRFSGNRSGTSFTLTISSLQPEDIGTYFCQQGQSYPLTFGAGTKLELRR
binds | 30H2, hybridoma supernatant (antibody, V domains shown) VH: EVKLVESGGGLVQPGGSLKLSCATSGFTFSDYGMAWVRQAPGKGPEWVAFISNLAYSFYYVDIVMGRFTISRENAKNTLYLEMSSLRSEDTAMYYCARVGLYGNFFMDYWGQGTSVTVSS VL: DIQMNQSPSSLSASLGDTITITCHASQNINVWLSWYQQKPGNIPELLIYKASNLHTGVPSRFSGNRSGTSFTLTISSLQPEDIGTYFCQQGQSYPLTFGAGTKLEIKR

Reference: US20250179160A1
